The results in this text go back to article PMC9110524.

Chains of the proteins cited; added tags and fusions are not shown.
UniProt Q9NRD5: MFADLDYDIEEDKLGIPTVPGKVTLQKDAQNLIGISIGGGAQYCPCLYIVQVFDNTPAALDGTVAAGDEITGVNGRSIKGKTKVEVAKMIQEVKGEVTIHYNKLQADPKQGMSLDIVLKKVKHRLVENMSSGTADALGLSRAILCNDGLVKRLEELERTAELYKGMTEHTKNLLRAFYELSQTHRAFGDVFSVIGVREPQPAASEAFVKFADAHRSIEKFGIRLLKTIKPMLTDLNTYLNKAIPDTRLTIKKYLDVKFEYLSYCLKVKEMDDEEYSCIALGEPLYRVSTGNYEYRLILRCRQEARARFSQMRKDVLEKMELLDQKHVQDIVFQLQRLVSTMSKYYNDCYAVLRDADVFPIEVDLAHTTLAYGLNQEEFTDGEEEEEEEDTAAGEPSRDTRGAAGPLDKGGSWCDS

No constants are given. Whether binding was seen depends on the method and setting. In cells and extracts the contact can be indirect. Some results given as binding are weak or reduced against the parent protein; the word gives no strength.

The test has as its target T1, nephrin (wild-type, human cDNA) (human) (UniProt O60500).
T1 sequence: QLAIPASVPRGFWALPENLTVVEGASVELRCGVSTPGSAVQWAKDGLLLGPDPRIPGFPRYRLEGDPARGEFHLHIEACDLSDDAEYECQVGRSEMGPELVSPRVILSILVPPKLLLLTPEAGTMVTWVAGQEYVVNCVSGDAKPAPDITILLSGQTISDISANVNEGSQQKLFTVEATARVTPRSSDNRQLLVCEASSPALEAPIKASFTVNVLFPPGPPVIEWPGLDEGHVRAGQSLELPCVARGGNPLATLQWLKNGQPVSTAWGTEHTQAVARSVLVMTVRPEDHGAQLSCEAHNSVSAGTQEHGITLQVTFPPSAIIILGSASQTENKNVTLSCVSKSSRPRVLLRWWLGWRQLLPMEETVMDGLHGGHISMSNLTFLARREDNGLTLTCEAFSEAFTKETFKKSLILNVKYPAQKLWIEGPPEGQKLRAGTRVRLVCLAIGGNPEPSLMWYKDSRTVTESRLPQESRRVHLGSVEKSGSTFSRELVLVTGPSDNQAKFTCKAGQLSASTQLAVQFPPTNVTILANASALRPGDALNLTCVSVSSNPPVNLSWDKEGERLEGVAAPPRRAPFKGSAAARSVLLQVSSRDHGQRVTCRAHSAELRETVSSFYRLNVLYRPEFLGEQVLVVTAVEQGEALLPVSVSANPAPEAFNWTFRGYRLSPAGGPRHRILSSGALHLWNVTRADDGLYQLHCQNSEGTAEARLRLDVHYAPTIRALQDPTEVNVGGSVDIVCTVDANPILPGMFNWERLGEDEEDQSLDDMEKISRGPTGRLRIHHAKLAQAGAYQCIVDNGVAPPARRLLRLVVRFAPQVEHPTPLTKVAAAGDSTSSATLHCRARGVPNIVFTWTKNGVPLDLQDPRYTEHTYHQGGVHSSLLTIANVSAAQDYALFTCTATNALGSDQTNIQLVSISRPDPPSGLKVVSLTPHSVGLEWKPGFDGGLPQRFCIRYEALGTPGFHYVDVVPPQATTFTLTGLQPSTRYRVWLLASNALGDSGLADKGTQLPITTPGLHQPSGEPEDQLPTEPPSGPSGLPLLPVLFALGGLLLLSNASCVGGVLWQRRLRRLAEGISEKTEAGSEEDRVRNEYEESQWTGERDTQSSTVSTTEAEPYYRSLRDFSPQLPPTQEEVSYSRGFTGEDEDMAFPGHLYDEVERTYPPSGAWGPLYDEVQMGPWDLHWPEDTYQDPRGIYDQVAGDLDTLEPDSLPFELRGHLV
Put plainly: co-IP; HEK293T overexpressing untagged PKCα, flag-tagged PICK1 and wild-type nephrin or nephrin S1146A; 1% Triton X-100 lysis buffer; nephrin immobilised, PKCα and PICK1 detected by Western blot; densitometry of IP signal over lysate signal, wild-type nephrin normalised to 100%. For orientation: A western blot detects proteins with antibodies after separation by electrophoresis.

On to “protein interacting with c kinase-1 (from UniProt Q9NRD5 1-415)”, for which the binding result is “binds”.

Regarding “protein kinase C alpha (from UniProt P17252 1-672) (enzyme)”, the binding result is listed as “binds”.
